Drawing on article PMC4506539, “Crystallographic structure of a small molecule SIRT1 activator-enzyme complex” (Nature Communications, 2015), this text covers binding for one substance.

Results are given in words; binding and its absence hold for the method and conditions named. Some entries that bind do so weakly or less than the wild type.

In this assay the target is T1, hSIRT1 catalytic core, residues 229–516 (human, UniProt Q96EB6 229-516).
T1 sequence (looked up): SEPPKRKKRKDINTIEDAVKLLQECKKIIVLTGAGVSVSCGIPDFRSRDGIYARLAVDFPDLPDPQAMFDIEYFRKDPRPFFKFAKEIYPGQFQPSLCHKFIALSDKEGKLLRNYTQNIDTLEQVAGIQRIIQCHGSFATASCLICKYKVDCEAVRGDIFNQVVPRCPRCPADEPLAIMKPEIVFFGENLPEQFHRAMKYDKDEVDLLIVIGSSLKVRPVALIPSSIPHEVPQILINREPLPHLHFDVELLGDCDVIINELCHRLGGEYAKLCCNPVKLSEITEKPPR
In words: HDX-MS; 1.36 mg/ml SIRT1 (229–516) ± 1.67 mM CTR peptide, 90% D2O, 200 mM phosphate pH read 7.0; 0 °C, 15-5,000 s; both purified.

For the substance “human C-terminal regulatory segment (CTR) peptide of SIRT1 (from UniProt Q96EB6 641-665)”, the binding result was “binds”.
